Data source: PubChem BioAssay AID743121 (NCATS, 2013)

Assay: 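Genes whose silencing strengthens cell killing by camptothecin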 (primary screen)
Cells: MDA-MB-231 cells, a human breast cancer line
Knock-down reagent: single siRNA against human genes, 20 nM siRNA (0.8 pmol per well)
Time to read-out: 120 h (drug added 48 h after transfection, read 72 h later)
Treatment: camptothecin 20 nM (about EC30) for 72 h; vehicle 0.1% DMSO in parallel plates
Read-out: 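CellTiter-Glo ATP signal, scaled to control siRNA as percent viability; sensitisation given as log2 of untreated divided by camptothecin-treated viability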
Direction: log2 vehicle/camptothecin viability: higher = stronger sensitisation to camptothecin; viability with camptothecin and viability without drug: higher = more viable cells
Active means: 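Each gene scored by redundant siRNA activity (RSA) over its individual siRNA ratios; a gene is called active at p < 0.001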
This is a random part of about 26,000 reagents. 167 of them (0.63%) were called active. 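Calls are per gene from RSA p-values that are not deposited; an individual active-marked siRNA can sensitise only weakly.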 Unmarked entries are inactive. Reagents against one gene are numbered here. Reagent sequences are not shown.

gene symbol	reagent	log2 vehicle/camptothecin viability	viability with camptothecin (% of control)	viability without drug (% of control)
OR7E91P	1	0.13	44	48.2
OR7E91P	2	-0.258	67.8	56.7
OR7E91P	3	0.383	73.2	95.5
OR7E91P	4	0.00594	76	76.3
OR7E91P	5	0.564	19.2	28.4
OR7E91P	6	-0.306	87.3	70.6
ESR2	1	-0.165	102	90.9
ESR2	2	-0.157	91.6	82.1
ESR2	3	-0.26	58	48.4
ESR2	4	-0.242	81	68.5
ACACA	1	-0.274	71.3	59
ACACA	2	0.184	34.5	39.2
ACACA	3	-0.176	93.2	82.5
ACACA	4	-0.141	67.7	61.4

Entries above whose gene name begins with E or e:
gene symbol	reagent	log2 vehicle/camptothecin viability	viability with camptothecin (% of control)	viability without drug (% of control)
ESR2	1	-0.165	102	90.9
ESR2	2	-0.157	91.6	82.1
ESR2	3	-0.26	58	48.4
ESR2	4	-0.242	81	68.5

Next reagents:
gene symbol	reagent	log2 vehicle/camptothecin viability	viability with camptothecin (% of control)	viability without drug (% of control)
RDH8	1	0.409	4.15	5.51
RDH8	2	-0.0855	111	104
RDH8	3	-0.296	49	39.9
PCMTD1	1	-0.114	110	101
PCMTD1	2	-0.322	62.3	49.9
PCMTD1	3	-0.269	106	87.6
PCMTD1	4	-0.329	95.2	75.8
IFNL1	1	0.027	101	103
IFNL1	2	-0.0179	101	99.3
IFNL1	3	-0.258	84.9	71
IFNL1	4	0.129	63.4	69.4
GALNS	1	-0.0688	53	50.5
GALNS	2	0.54	4.51	6.56
GALNS	3	-0.965	51.2	26.2
GALNS	4	0.00543	74.6	74.8
